Data reported in the supplement of paper PMC8728848.
Some of the results follow.

Assays:
Assay in all cases: glycan array binding signal (z-score within array); higher = stronger binding
Details in all cases: glycan notation: IUPAC condensed, linker removed
[1] = target: Gal(b1-3)GlcNAc(b1-6)GalNAc
Method in brief: (§1)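 Glycan array data came from 3228 arrays in the Consortium for Functional Glycomics database, and only arrays with an available protein sequence were kept. Glycan names were put into IUPAC-condensed notation, and columns mapping to the same glycan were averaged. The binding signal is a within-array Z-score, averaged across arrays of one protein sequence run at different concentrations or buffers and across linkers. A negative Z-score can be read as non-binding.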

[2] = target: Gal(b1-3)GlcNAc(b1-6)[Gal(b1-3)]GalNAc
Method in brief: as §1

Gal(b1-3)GlcNAc6S = target: Gal(b1-3)GlcNAc6S
Method in brief: as §1

[3] = target: Gal(b1-3)[Fuc(a1-4)]GlcNAc
Method in brief: as §1

[4] = target: Gal(b1-3)[Fuc(a1-4)]GlcNAc(b1-2)Man
Method in brief: as §1

[5] = target: Gal(b1-3)[Fuc(a1-4)]GlcNAc(b1-2)Man(a1-3)[Gal(b1-3)[Fuc(a1-4)]GlcNAc(b1-2)Man(a1-6)]Man(b1-4)GlcNAc(b1-4)[Fuc(a1-6)]GlcNAc
Method in brief: as §1

[6] = target: Gal(b1-3)[Fuc(a1-4)]GlcNAc(b1-3)Gal(b1-3)[Fuc(a1-4)]GlcNAc
Method in brief: as §1

[7] = target: Gal(b1-3)[Fuc(a1-4)]GlcNAc(b1-3)Gal(b1-4)[Fuc(a1-3)]GlcNAc
Method in brief: as §1

[8] = target: Gal(b1-3)[Fuc(a1-4)]GlcNAc(b1-6)GalNAc
Method in brief: as §1

[9] = target: Gal(b1-3)[GlcNAc(b1-6)]GalNAc
Method in brief: as §1

[10] = target: Gal(b1-3)[Neu5Ac(a2-6)]GalNAc
Method in brief: as §1

[11] = target: Gal(b1-3)[Neu5Ac(a2-6)]GlcNAc(b1-4)Gal(b1-4)Glc
Method in brief: as §1

[12] = target: Gal(b1-3)[Neu5Ac(b2-6)]GalNAc
Method in brief: as §1

Gal(b1-4)Gal = target: Gal(b1-4)Gal
Method in brief: as §1

[13] = target: Gal(b1-4)GalNAc(a1-3)[Fuc(a1-2)]Gal(b1-4)GlcNAc
Method in brief: as §1

[14] = target: Gal(b1-4)GalNAc(b1-3)[Fuc(a1-2)]Gal(b1-4)GlcNAc
Method in brief: as §1

Gal(b1-4)Glc = target: Gal(b1-4)Glc
Method in brief: as §1

Gal(b1-4)Glc6S = target: Gal(b1-4)Glc6S
Method in brief: as §1

Gal(b1-4)GlcNAc = target: Gal(b1-4)GlcNAc
Method in brief: as §1

[15] = target: Gal(b1-4)GlcNAc(a1-6)Gal(b1-4)GlcNAc
Method in brief: as §1

Gal(b1-4)GlcNAc(b1-2)Man = target: Gal(b1-4)GlcNAc(b1-2)Man
Method in brief: as §1

[16] = target: Gal(b1-4)GlcNAc(b1-2)Man(a1-3)Man(b1-4)GlcNAc(b1-4)GlcNAc
Method in brief: as §1

[17] = target: Gal(b1-4)GlcNAc(b1-2)Man(a1-3)[Gal(b1-4)GlcNAc(b1-2)Man(a1-6)]Man(b1-4)GlcNAc(b1-4)GlcNAc
Method in brief: as §1

[18] = target: Gal(b1-4)GlcNAc(b1-2)Man(a1-3)[Gal(b1-4)GlcNAc(b1-2)Man(a1-6)]Man(b1-4)GlcNAc(b1-4)[Fuc(a1-6)]GlcNAc
Method in brief: as §1

[19] = target: Gal(b1-4)GlcNAc(b1-2)Man(a1-3)[Gal(b1-4)GlcNAc(b1-2)Man(a1-6)][Gal(b1-4)GlcNAc(b1-4)]Man(b1-4)GlcNAc(b1-4)[Fuc(a1-6)]GlcNAc
Method in brief: as §1

[20] = target: Gal(b1-4)GlcNAc(b1-2)Man(a1-3)[Gal(b1-4)GlcNAc(b1-2)Man(a1-6)][GlcNAc(b1-4)]Man(b1-4)GlcNAc(b1-4)[Fuc(a1-6)]GlcNAc
Method in brief: as §1

[21] = target: Gal(b1-4)GlcNAc(b1-2)Man(a1-3)[GlcNAc(b1-2)Man(a1-6)]Man(b1-4)GlcNAc(b1-4)GlcNAc
Method in brief: as §1

[22] = target: Gal(b1-4)GlcNAc(b1-2)Man(a1-3)[GlcNAc(b1-4)][Gal(b1-4)GlcNAc(b1-2)Man(a1-6)]Man(b1-4)GlcNAc(b1-4)GlcNAc
Method in brief: as §1

[23] = target: Gal(b1-4)GlcNAc(b1-2)Man(a1-3)[Man(a1-6)]Man(b1-4)GlcNAc(b1-4)GlcNAc
Method in brief: as §1

[24] = target: Gal(b1-4)GlcNAc(b1-2)Man(a1-6)Man(b1-4)GlcNAc(b1-4)GlcNAc
Method in brief: as §1

[25] = target: Gal(b1-4)GlcNAc(b1-2)Man(a1-6)[GlcNAc(b1-2)Man(a1-3)]Man(b1-4)GlcNAc(b1-4)GlcNAc
Method in brief: as §1

[26] = target: Gal(b1-4)GlcNAc(b1-2)Man(a1-6)[Man(a1-3)]Man(b1-4)GlcNAc(b1-4)GlcNAc
Method in brief: as §1

[27] = target: Gal(b1-4)GlcNAc(b1-2)[Gal(b1-4)GlcNAc(b1-4)]Man(a1-3)[Gal(b1-4)GlcNAc(b1-2)Man(a1-6)]Man(b1-4)GlcNAc(b1-4)GlcNAc
Method in brief: as §1

[28] = target: Gal(b1-4)GlcNAc(b1-2)[Gal(b1-4)GlcNAc(b1-4)]Man(a1-3)[Gal(b1-4)GlcNAc(b1-2)[Gal(b1-4)GlcNAc(b1-6)]Man(a1-6)]Man(b1-4)GlcNAc(b1-4)GlcNAc
Method in brief: as §1

[29] = target: Gal(b1-4)GlcNAc(b1-2)[Gal(b1-4)GlcNAc(b1-4)]Man(a1-3)[GlcNAc(b1-4)][Gal(b1-4)GlcNAc(b1-2)Man(a1-6)]Man(b1-4)GlcNAc(b1-4)GlcNAc
Method in brief: as §1

[30] = target: Gal(b1-4)GlcNAc(b1-2)[Gal(b1-4)GlcNAc(b1-4)]Man(a1-3)[GlcNAc(b1-4)][Gal(b1-4)GlcNAc(b1-2)[Gal(b1-4)GlcNAc(b1-6)]Man(a1-6)]Man(b1-4)GlcNAc(b1-4)GlcNAc
Method in brief: as §1

[31] = target: Gal(b1-4)GlcNAc(b1-2)[Gal(b1-4)GlcNAc(b1-6)]Man(a1-6)[Gal(b1-4)GlcNAc(b1-2)Man(a1-3)]Man(b1-4)GlcNAc(b1-4)GlcNAc
Method in brief: as §1

B1: AT5G24760(45) (Arabidopsis thaliana), Q8LEB2 (protein)
chain: MSASSSSFEQPQVITCNAAVAWRAGEPLVMEEVEVSPPQPLEIRIKVVCTSLCRSDLSAWESQSLLPRIFGHEAAGIVESIGEGVTEFEKGDHVLAVFTGECGSCRHCISGKSNMCQVLGMERKGLMHSDQKTRFSIKGKPVYHYCAVSSFSEYTVVHSGCAVKVDPLAPLHKICLLSCGVAAGLGAAWNVADVQKGSSVVIFGLGTVGLSVAQGAKLRGAAQILGVDINPAKAEQAKTFGVTDFINSNDLSEPIPQVIKRMTGGGADFSFECVGDTGIATTALQSCSDGWGMTVTLGVPKAKPEVSAHYGLFLSGKSLKGTLFGGWKPKSDLPSLIDKYMNKEIMIDEFITHNLSFDEINKAFVLMREGKCLRCVLHMPK
**Q.** With B1 as the binder, how does the “glycan array binding signal (z-score)” value [1] read?
**A.** The value was -0.54.

**Q.** And the “glycan array binding signal (z-score)” value [2]?
**A.** The value was -0.307.

**Q.** What about the “glycan array binding signal (z-score)” value (Gal(b1-3)GlcNAc6S) of the same binder?
**A.** The value was -0.515.

**Q.** What about the “glycan array binding signal (z-score)” value [3] of the same binder?
**A.** Its value is 1.6.

**Q.** What about the “glycan array binding signal (z-score)” value [4] of the same binder?
**A.** The value was -1.06.

**Q.** What about the “glycan array binding signal (z-score)” value [5] of the same binder?
**A.** Its value is -0.439.

**Q.** What about the “glycan array binding signal (z-score)” value [6] of the same binder?
**A.** The value was -0.507.

**Q.** And the “glycan array binding signal (z-score)” value [7]?
**A.** Its value is 0.052.

**Q.** And the “glycan array binding signal (z-score)” value [8]?
**A.** The value was -0.242.

**Q.** And the “glycan array binding signal (z-score)” value [9]?
**A.** The value was 0.39.

**Q.** What about the “glycan array binding signal (z-score)” value [10] of the same binder?
**A.** The value was -0.212.

**Q.** And the “glycan array binding signal (z-score)” value [11]?
**A.** The value was -0.277.

**Q.** What about the “glycan array binding signal (z-score)” value [12] of the same binder?
**A.** Its value is 0.708.

**Q.** And the “glycan array binding signal (z-score)” value (Gal(b1-4)Gal)?
**A.** The value was -0.537.

**Q.** And the “glycan array binding signal (z-score)” value [13]?
**A.** Its value is -1.13.

**Q.** And the “glycan array binding signal (z-score)” value [14]?
**A.** Its value is -0.802.

**Q.** And the “glycan array binding signal (z-score)” value (Gal(b1-4)Glc)?
**A.** Its value is 0.137.

**Q.** What about the “glycan array binding signal (z-score)” value (Gal(b1-4)Glc6S) of the same binder?
**A.** The value was 0.58.

**Q.** What about the “glycan array binding signal (z-score)” value (Gal(b1-4)GlcNAc) of the same binder?
**A.** Its value is 0.653.

**Q.** And the “glycan array binding signal (z-score)” value [15]?
**A.** The value was 0.594.

**Q.** And the “glycan array binding signal (z-score)” value (Gal(b1-4)GlcNAc(b1-2)Man)?
**A.** The value was -0.232.

**Q.** What about the “glycan array binding signal (z-score)” value [16] of the same binder?
**A.** The value was -0.219.

**Q.** What about the “glycan array binding signal (z-score)” value [17] of the same binder?
**A.** The value was -0.691.

**Q.** And the “glycan array binding signal (z-score)” value [18]?
**A.** Its value is 1.1.

**Q.** And the “glycan array binding signal (z-score)” value [19]?
**A.** The value was 0.369.

**Q.** And the “glycan array binding signal (z-score)” value [20]?
**A.** The value was -0.661.

**Q.** And the “glycan array binding signal (z-score)” value [21]?
**A.** The value was -0.618.

**Q.** What about the “glycan array binding signal (z-score)” value [22] of the same binder?
**A.** The value was -0.515.

**Q.** What about the “glycan array binding signal (z-score)” value [23] of the same binder?
**A.** The value was -0.522.

**Q.** What about the “glycan array binding signal (z-score)” value [24] of the same binder?
**A.** The value was -0.932.

**Q.** What about the “glycan array binding signal (z-score)” value [25] of the same binder?
**A.** Its value is -0.565.

**Q.** What about the “glycan array binding signal (z-score)” value [26] of the same binder?
**A.** The value was -0.485.

**Q.** And the “glycan array binding signal (z-score)” value [27]?
**A.** Its value is 0.247.

**Q.** What about the “glycan array binding signal (z-score)” value [28] of the same binder?
**A.** The value was -0.969.

**Q.** And the “glycan array binding signal (z-score)” value [29]?
**A.** Its value is -0.721.

**Q.** What about the “glycan array binding signal (z-score)” value [30] of the same binder?
**A.** Its value is 0.214.

**Q.** And the “glycan array binding signal (z-score)” value [31]?
**A.** The value was -0.77.
